Test results from US20250249092A1 (TORAY INDUSTRIES, published 2025).
Results are given in words; binding and its absence hold for the method and conditions named. Some binding calls cover weakened binding; strength is not graded here.

T1: CAPRIN-1 protein on the cell membrane surface of cancer cells (UniProt Q14444)
T1 sequence (looked up): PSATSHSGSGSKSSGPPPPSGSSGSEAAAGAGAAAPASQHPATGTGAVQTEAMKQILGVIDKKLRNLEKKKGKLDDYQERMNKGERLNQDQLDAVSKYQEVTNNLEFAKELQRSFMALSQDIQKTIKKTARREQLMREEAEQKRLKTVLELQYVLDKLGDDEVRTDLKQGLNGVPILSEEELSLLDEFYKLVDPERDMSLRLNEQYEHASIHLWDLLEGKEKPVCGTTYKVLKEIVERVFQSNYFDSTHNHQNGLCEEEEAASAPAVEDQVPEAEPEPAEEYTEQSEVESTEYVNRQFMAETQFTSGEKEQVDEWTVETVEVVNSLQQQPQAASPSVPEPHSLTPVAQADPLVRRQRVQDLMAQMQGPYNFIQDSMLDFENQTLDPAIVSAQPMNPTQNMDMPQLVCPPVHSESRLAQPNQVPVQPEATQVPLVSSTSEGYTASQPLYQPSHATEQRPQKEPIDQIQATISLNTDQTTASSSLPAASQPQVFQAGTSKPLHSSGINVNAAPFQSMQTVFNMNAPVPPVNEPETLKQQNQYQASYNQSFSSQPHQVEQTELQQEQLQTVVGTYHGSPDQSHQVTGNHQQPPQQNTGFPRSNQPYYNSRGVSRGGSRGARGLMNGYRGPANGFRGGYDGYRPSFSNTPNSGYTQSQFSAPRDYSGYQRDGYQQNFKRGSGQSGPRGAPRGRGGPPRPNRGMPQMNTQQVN

T2: CAPRIN-1 protein (UniProt Q14444)
T2 sequence (looked up): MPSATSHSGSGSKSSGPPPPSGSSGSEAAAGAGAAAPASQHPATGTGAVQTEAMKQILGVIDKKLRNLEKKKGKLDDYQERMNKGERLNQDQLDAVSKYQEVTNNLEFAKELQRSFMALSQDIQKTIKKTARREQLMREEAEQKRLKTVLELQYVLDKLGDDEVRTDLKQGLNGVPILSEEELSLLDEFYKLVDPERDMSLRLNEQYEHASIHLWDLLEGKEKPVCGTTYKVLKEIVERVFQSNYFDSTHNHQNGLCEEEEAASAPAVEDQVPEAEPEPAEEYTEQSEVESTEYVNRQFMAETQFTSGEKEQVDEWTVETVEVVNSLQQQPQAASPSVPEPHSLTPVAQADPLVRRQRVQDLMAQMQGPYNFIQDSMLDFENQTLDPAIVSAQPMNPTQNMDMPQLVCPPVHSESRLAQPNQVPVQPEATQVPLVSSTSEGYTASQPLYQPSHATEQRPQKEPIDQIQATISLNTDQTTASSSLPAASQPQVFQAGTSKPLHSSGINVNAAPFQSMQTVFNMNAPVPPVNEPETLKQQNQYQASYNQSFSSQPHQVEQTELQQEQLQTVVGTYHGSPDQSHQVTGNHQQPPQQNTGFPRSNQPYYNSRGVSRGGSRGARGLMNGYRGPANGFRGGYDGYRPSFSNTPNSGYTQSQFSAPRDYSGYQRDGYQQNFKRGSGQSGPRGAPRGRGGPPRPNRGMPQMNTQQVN


Assays:
[1] = target: T1, CAPRIN-1 protein on the cell membrane surface of cancer cells; assay: flow cytometry
[2] = target: T2, CAPRIN-1 protein; assay: ELISA

binding [1]	binding [2]	Binder
binds	binds	Conjugate 50 (antibody, human IgG1, V domains shown) VH: DAELVKPGASVKISCKASGYTFTDHSIHWVQQKPEQGLEWIGYISPGNGNIKYNEKFKGKATLTADKSSSTAYMQLNSLTSEDSAVYFCKRSLGRGGPYYFDYWGQGTTVTVSS VL: DIVLTQAAPSLPVTPGESVSISCRSSKSLLHSNGNTYLYWFLQRPGQSPQLLIYRMSNLASGVPDRFSGSGSGTAFTLRISRVEAEDVGVYYCMQHREYPVTFGSGPN
binds	binds	Conjugate 66 (antibody, human IgG1, V domains shown) VH: GPDLVKPGASVKISCKASGYSFTAYYMHWVKQSHGKSLEWIGRVNPNNGGTTYNQKFKGKAILTVDKSSSTAYMELRSLTFEDSAVYYCARRIYYGYFDYWGQGTTVTVSS VL: AFFAVSLGQRATISCKASQSVDYDGDSYMNWYQQKPGQPPKLLIYVASNLESGVPARFSGSGSGTDFTLNIHPVEEEDAATYYCQQSNEDPYTFGGGTKLEIKQ
binds	binds	Conjugate 55 (antibody, human IgG1, V domains shown) VH: EVQLHQFGAELVKPGASVKISCKASGYTFTDYNMDWVKQSHGKSLEWIGDINPNYDSTSYNQKFKGKATLTVDKSSSTAYMELRSLTSEDTAVYYCARSRSYDYEGFAYWGQGTLVTVSA VL: DIQMTQSPASLSASVGETVTITCRASGNIHNYLAWYQQKQGKSPQLLVYNAKTLADGVPSRFSGSGSGTQYSLKINSLQPEDFGSYYCQHFWSTLTFGAGTKLELKR
binds	binds	Conjugate 72 (antibody, human IgG1, V domains shown) VH: EVQLVESGGGLVQPGGSLRLSCAASGFSLSSHSLGWVRQAPGKGLEWIGDIRSGGSAYYANWAKGRFTISRDNSKNTLYLQMNSLRAEDTAVYYCTRTNGPSDLTNRLDLWGQGTLVTVSS VL: QVLTQSPSSLSASVGDRVTINCQASQSLYNNENLAWFQQKPGKVPKRLIYGASTLASGVSSRFSGSGSGTEFTLTISSLQCEDFAIYYCLGEFSCGSADCFAFGGGTKVEIK
binds	binds	Conjugate 73 (antibody, human IgG1, V domains shown) VH: EVQLVESGGGLVQPGGSLRLSCAASGFSLSSHSLGWVRQAPGKGLEWIGDIRSGGSAYYANWAKGRFTISRDNSKNTLYLQMNSLRAEDTAVYFCTRTNGPSDLTNRLDLWGQGTLVTVSS VL: QVLTQSPSSLSASVGDRVTINCQASQSLYNNENLAWFQQKPGKVPKRLIYGASTLASGVSSRFSGSGSGTEFTLTISSLQCEDFAIYYCLGEFSCGSADCFAFGGGTKVEIK
binds	binds	Conjugate 76 (antibody, human IgG1, V domains shown) VH: EVQLVESGGGLVQPGGSLRLSCAASGFSLSSHSLGWVRQAPGKGLEWIGDIRSGGSAYYANWAKGRFTISRDNSKNTLYLQMNSLRAEDTAVYYCTRTNGPSDLTNRLDLWGQGTLVTVSS VL: EIVLTQSPSSLSASVGDRVTINCQASQSLYNNENLAWFQQKPGKVPKRLIYGASTLASGVSSRFSGSGSGTEFTLTISNLQPEDFATYYCLGEFSCGSADCFAFGGGTKVEIK
binds	binds	Conjugate 74 (antibody, human IgG1, V domains shown) VH: EVQLVESGGGLVQPGGSLRLSCAASGFSLSSHSLGWVRQAPGKGLEWIGDIRSGGSAYYANWAKGRFTISRDNSKNTLYLQMNSLRAEDTAVYYCTRTNGPSDLTNRLDLWGQGTLVTVSS VL: EQVLTQSPSSLSASVGDRVTINCQASQSLYNNENLAWFQQKPGKVPKRLIYGASTLASGVSSRFSGSGSGTEFTLTISNLQPEDFAIYYCLGEFSCGSADCFAFGGGTKVEIK
binds	binds	Conjugate 75 (antibody, human IgG1, V domains shown) VH: EVQLVESGGGLVQPGGSLRLSCAASGFSLSSHSLGWVRQAPGKGLEWIGDIRSGGSAYYANWAKGRFTISRDNSKNTLYLQMNSLRAEDTAVYFCTRTNGPSDLTNRLDLWGQGTLVTVSS VL: EIVLTQSPSSLSASVGDRVTINCQASQSLYNNENLAWFQQKPGKVPKRLIYGASTLASGVSSRFSGSGSGTEFTLTISNLQPEDFATYYCLGEFSCGSADCFAFGGGTKVEIK
